Laboratory results: US20070014790A1
No constants are given. Whether binding was seen depends on the method and setting. For some of these results: In cells and extracts the contact can be indirect. Some results given as binding are weak or reduced against the parent protein; the word gives no strength. For some of these results: Tags and fused reporters may be left off the sequences shown. One block for each binder: values may come before it.

Amino acid sequences for entries named in this document (tags omitted). A change or cut given only in a name is not applied to a line headed by its entry.
UniProt P04386: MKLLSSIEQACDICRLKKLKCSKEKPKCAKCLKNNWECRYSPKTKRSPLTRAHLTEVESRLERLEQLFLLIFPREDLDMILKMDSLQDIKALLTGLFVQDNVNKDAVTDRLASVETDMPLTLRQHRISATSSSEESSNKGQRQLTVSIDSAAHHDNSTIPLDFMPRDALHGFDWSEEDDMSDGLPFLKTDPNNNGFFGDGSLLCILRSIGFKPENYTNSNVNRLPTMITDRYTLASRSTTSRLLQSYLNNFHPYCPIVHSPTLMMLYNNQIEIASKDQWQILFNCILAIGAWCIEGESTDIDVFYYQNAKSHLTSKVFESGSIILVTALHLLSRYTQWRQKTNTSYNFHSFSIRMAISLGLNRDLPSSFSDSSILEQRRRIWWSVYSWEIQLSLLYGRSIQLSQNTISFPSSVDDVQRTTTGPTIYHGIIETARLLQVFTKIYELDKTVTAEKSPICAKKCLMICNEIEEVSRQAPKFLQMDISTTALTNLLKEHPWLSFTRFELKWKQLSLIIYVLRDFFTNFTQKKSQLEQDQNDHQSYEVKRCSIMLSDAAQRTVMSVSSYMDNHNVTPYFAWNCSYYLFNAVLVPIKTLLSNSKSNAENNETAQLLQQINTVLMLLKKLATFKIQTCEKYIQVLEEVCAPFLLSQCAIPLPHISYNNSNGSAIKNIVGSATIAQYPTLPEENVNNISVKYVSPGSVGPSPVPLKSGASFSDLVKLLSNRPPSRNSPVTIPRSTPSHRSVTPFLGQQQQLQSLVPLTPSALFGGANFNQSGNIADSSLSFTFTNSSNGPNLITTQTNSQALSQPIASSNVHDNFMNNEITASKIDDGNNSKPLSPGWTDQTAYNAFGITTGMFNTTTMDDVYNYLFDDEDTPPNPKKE

Assays:
[1] = target: T1, entire coding region of human ZHX3 protein fused to GST, GST-ZHX3 (1-956) (human) (UniProt Q9H4I2); assay: GST pull-down on glutathione-Sepharose beads, SDS/PAGE and autoradiography
T1 sequence: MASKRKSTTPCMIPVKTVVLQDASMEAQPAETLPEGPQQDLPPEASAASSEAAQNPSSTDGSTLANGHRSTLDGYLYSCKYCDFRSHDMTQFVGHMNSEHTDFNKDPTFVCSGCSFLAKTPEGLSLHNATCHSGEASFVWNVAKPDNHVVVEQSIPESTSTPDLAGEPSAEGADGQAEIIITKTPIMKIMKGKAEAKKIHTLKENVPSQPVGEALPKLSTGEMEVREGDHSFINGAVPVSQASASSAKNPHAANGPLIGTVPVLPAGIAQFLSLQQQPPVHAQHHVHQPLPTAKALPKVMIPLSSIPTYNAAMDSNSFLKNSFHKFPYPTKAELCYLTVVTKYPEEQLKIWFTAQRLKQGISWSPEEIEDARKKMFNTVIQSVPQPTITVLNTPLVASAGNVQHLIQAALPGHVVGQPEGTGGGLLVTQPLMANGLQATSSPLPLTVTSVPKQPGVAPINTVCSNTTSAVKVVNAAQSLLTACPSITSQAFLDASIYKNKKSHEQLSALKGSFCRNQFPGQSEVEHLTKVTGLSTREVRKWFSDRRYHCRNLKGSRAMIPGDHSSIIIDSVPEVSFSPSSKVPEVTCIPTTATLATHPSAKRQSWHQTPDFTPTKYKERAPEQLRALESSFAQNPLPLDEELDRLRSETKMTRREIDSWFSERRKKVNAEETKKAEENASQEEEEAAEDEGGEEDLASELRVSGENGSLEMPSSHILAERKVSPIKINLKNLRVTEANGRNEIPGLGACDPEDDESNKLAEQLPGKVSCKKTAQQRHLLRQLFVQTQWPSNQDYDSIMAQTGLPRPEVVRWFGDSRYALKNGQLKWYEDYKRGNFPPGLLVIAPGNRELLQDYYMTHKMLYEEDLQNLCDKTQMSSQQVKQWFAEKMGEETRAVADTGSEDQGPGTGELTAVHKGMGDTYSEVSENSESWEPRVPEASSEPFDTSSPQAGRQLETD

[2] = target: T2, entire coding region of human ZHX1 protein fused to GST, GST-ZHX1 (1-873) (human) (UniProt Q9UKY1); assay: as above
T2 sequence (looked up): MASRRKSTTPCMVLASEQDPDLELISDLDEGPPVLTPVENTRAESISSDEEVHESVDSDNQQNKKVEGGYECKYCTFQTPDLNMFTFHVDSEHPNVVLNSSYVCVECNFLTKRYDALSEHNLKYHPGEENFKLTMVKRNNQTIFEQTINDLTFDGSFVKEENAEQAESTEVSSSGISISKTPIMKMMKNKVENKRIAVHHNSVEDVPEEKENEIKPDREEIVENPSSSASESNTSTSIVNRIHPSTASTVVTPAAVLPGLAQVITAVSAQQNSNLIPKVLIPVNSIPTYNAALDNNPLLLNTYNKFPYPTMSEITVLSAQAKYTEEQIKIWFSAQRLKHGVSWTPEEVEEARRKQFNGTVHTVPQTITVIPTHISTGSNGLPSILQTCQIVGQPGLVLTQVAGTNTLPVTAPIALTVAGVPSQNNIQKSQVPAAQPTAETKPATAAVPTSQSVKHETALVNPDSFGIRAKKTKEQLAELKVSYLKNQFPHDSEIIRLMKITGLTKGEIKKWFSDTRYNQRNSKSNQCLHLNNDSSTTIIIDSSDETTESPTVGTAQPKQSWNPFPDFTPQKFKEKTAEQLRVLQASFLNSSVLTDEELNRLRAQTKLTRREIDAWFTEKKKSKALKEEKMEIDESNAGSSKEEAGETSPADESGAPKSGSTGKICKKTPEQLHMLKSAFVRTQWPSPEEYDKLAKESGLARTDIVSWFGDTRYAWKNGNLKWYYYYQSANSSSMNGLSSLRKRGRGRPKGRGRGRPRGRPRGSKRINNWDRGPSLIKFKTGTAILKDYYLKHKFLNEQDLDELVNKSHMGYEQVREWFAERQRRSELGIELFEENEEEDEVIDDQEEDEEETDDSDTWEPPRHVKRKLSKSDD

[3] = target: entire coding sequence of human ZHX1 fused to the GAL4 DBD, pDBD-ZHX1 (1-873) (yeast; human) (UniProt P04386+Q9UKY1); assay: yeast two-hybrid library screen, bait GAL4 DBD-human ZHX1 (1-873)

binding [1]: binds
B1: in vitro-translated, 35S-labelled full-length human ZHX1 (protein, UniProt Q9UKY1 1-873, looked up)
chain: T2 sequence (looked up)
modifications: 35S-labelled

binding [2]: binds | binding [1]: binds
B2: in vitro-translated, 35S-labelled full-length human ZHX3 (protein)
chain: T1 sequence
modifications: 35S-labelled

binding [3]: binds
B3: ZHX1 (clones from the rat cDNA libraries) (protein, UniProt Q8R515 1-873, looked up, not shown: large carriers)
chain: MASRRKSTTPCMVLASEQDPDLELISDLEEGPPVLTPVENARAESVSSDEEVHESVDSDNQQNKKVEGGYECKYCTFQTPDLNMFTFHVDSEHPNVVLNSSYVCVECNFLTKRYDALSEHNLKYHPGEENFKLTMVKRNNQTIFEQTINDLTFDGSFVKEENTEQGESIDVSSSGISISKTPIMKMMKNKVENKRITVHHNSAEGTSEEKENGVKASREENAENTSSSASESNTSTSTVNQVHPSPAGTVVTPTAVLPGLAQVITAVSAQQNSNLVPKVLIPVNSIPTYNAALDNNPLLLNTYNKFPYPTMSEITVLSAQAKYTEEQIKIWFSAQRLKHGVSWTPEEVEEARRKQFNGTVHTVPQTITVIPTHISTGSNGLPSILQTCQIVGQPGLVLTQVAGANTLPVTAPIALTVAGVPNQTNVQKSQVPAAQPAAETKPATAAVPSSPSVRPEAALVNPDSFGIRAKKTKEQLAELKVSYLKNQFPHDSEIIRLMKITGLTKGEIKKWFSDTRYNQRNSKSNQCLHLNNDSSATIIIDSSDETPEPPAAAASQPKQSWNPFPDFAPQKFKEKTAEQLRVLQASFLNSSVLTDEELNRLRAQTKLTRREIDAWFTEKNKTKALKDEKVEVDESNVGSSKEEPGENSPGDEAVAPKSAGTGKICKKTPEQLHMLKSAFVRTQWPSPEEYDKLAEESGLARTDIVSWFGDTRYAWKNGNLKWYYYYQSSNSSSLNGLSSLRKRGRGRPKGRGRGRPRGRPRGGKRMNTWDRVPSLIKFKTGTAILKDYYLKHKFLNEQDLDELVNRSHMGYEQVREWFAERQRRSELGIELFEENEEEDEVIDDQEEDEEETDDSDTWEPPRHVKRKLSKSDD
